PubChem BioAssay AID588590 (National Center for Advancing Translational Sciences (NCATS), 2011)
Hit rate of the full screen: of about 390,000 compounds, about 4,000 (1%) were called active. The inconclusive results got no clear call from the source; some entries with a clear call stand among them for comparison. Calls come from the whole dose curve; as a rule, active = well fitted inhibition curve with a large enough effect; inconclusive = small, poorly fitted or top-dose-only effect, or another doubt; inactive = no such curve, though single readings can be large or run the other way. A potency beside an inconclusive call is a rough fit, not a confirmed value.

Amino acid sequences for entries named in this document (tags omitted). A change or cut given only in a name is not applied to a line headed by its entry.
UniProt Q9UNA4: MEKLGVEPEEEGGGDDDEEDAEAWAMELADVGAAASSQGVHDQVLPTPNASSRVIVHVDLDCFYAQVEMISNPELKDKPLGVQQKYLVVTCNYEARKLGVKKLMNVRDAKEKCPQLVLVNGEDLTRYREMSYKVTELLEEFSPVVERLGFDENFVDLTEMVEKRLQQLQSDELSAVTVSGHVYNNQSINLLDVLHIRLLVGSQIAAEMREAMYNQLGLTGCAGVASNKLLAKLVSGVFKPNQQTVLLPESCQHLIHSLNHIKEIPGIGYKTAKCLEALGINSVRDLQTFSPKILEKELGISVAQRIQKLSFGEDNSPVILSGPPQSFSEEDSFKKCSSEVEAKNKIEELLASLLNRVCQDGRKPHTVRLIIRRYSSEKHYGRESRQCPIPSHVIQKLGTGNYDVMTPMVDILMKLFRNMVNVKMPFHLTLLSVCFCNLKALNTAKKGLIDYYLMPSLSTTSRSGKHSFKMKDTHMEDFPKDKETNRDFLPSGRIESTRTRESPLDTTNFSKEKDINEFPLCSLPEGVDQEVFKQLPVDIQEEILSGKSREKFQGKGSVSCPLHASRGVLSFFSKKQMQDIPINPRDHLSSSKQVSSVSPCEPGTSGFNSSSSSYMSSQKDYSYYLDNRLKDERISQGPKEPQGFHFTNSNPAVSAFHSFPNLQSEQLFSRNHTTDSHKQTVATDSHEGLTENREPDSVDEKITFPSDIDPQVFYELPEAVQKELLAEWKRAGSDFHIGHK

What follows are compounds tested against DNA polymerase iota (Homo sapiens) (UniProt Q9UNA4) (assay: qHTS for Inhibitors of Polymerase Iota). Conditions: Pol iota fluorescent replication assay, 10 min; series mostly up to 115 µM; activity, negative = inhibition: at the top concentration.
Procedure, shortened: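 Fluorescent replication assay read twice, at 0 min and 10 min after adding 50 nM (final) substrate. Enzyme (10 nM) and compounds were first incubated 15 min at room temperature; enzyme-free buffer wells were negative controls.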
Potency is the fitted concentration of half-maximal effect.

SMILES	Potency	activity, negative = inhibition
CCOC(=O)c1cc(C)sc1/N=C/C1C(=O)NC(=S)NC1=O	inconclusive: 2.82 µM [inhibitor, partial curve, poor fit]	
O=C(Cn1cc(C(=O)c2ccccc2)c2ccccc21)Nc1ccc(Br)cc1		inactive: 20.1%
O=C(Oc1ccc(Br)cc1C(=S)N1CCCC1)c1ccccc1Cl	inconclusive: 39.8 µM [inhibitor, single point]	
Cc1ccnc(-n2c(C)cc(C=C3C(=O)N(C)C(=S)N(C)C3=O)c2C)c1	inconclusive: 28.2 µM [inhibitor, partial curve, poor fit]	
COC(=O)C1=Nc2ccccc2/C1=C\c1c(O)n(-c2ccc(Br)cc2)c(=O)[nH]c1=O		inactive: -5.98%
O=C1c2ccccc2-c2cccc3cccc1c23	inconclusive: 50.1 µM [inhibitor, partial curve, poor fit]	
Cc1ccc(N2C(=O)CC(=O)NC2=O)cc1Cl	inconclusive: 35.5 µM [inhibitor, single point]	
COC(=O)C1=C(c2c(C)noc2C)C[C@@H]2CC[C@H]1N2C(=O)NCC1CC1	inconclusive: 39.8 µM [inhibitor, single point]	
COc1ccc(N=C(C)c2c(O)n(C)c(=O)n(C)c2=O)c(OC)c1	inconclusive: 1.12 µM [inhibitor, partial curve, poor fit]	
Cc1cccc(N2C(=O)NC(=O)/C(=C\C=C\c3ccco3)C2=O)c1	active: 12.6 µM	
CCOc1cc(CNCCc2c[nH]c3ccccc23)cc(Cl)c1OC	inconclusive: 0.631 µM [inhibitor, full curve, poor fit]	
O=C(NN=Cc1ccc(N(CCCl)CCCl)cc1)c1cc(=O)[nH]c(=O)[nH]1	inconclusive: 25.1 µM [inhibitor, single point]	
CC(=O)NC1=C(N2CC2C)C(=O)C(NC(C)=O)=C(N2CC2C)C1=O (stereo not given)	inconclusive: 22.4 µM [inhibitor, partial curve]	
COc1cc(C=C2C(=O)NC(=O)NC2=O)ccc1OS(=O)(=O)c1ccccc1[N+](=O)[O-]	inconclusive: 31.6 µM [inhibitor, single point]	
O=C1NC(=O)N(c2ccccc2)C(=O)/C1=C/c1coc2ccc(O)cc2c1=O	active: 22.4 µM	
O=[N+]([O-])c1ccc(-c2ccccc2)c([As](=O)(O)O)c1	inconclusive: 28.2 µM [inhibitor, partial curve, poor fit]	
CCOC(=O)N1CCCN(/[N+]([O-])=N/Oc2ccc([N+](=O)[O-])cc2[N+](=O)[O-])CC1	inconclusive: 20 µM [inhibitor, full curve, poor fit]	
CCN(CC(=O)Nc1ccc(NC(C)=O)cc1)C(=O)CSC(c1ccccc1)c1ccccc1		inactive: -0.226%
CNP1(NC)=NC(C(F)(F)F)=NC(C(F)(F)F)=N1	inconclusive: 79.4 µM [inhibitor, full curve]	
COc1ccccc1NC(=O)Oc1ccc(C(C)=O)cc1	inconclusive: 39.8 µM [inhibitor, single point]	

Another view of part of the listing above.

| SMILES | Potency | activity, negative = inhibition |
| --- | --- | --- |
| CCOc1cc(CNCCc2c[nH]c3ccccc23)cc(Cl)c1OC | inconclusive: 0.631 µM [inhibitor, full curve, poor fit] |  |
| O=[N+]([O-])c1ccc(-c2ccccc2)c([As](=O)(O)O)c1 | inconclusive: 28.2 µM [inhibitor, partial curve, poor fit] |  |

The listing continues:

SMILES	Potency	activity, negative = inhibition
CCN(CC)CCN=Cc1c(O)n(CCc2ccccc2)c(=O)[nH]c1=O	inconclusive: 35.5 µM [inhibitor, single point]	
Nc1cc(Cl)c2nonc2c1[N+](=O)[O-]	inconclusive: 15.8 µM [inhibitor, full curve, poor fit]	
CCn1c(O)c(C=Nc2ccc(N3CCOCC3)c(Br)c2)c(=O)n(CC)c1=S		inactive: 20.4%
Oc1c(Br)c(Br)c(Br)c(Br)c1Br	inconclusive: 14.1 µM [inhibitor, full curve, poor fit]	
CCOc1ccccc1N1C(=O)CC(=O)NC1=O	inconclusive: 15.8 µM [inhibitor, partial curve, poor fit]	
O=C1NC(=O)N(c2ccc3c(c2)OCO3)C(=O)/C1=C\c1ccsc1	inconclusive: 15.8 µM [inhibitor, partial curve]	
CCC1(CCc2ccncc2)C(=O)NC(=O)NC1=O	inconclusive: 31.6 µM [inhibitor, partial curve, poor fit]	
S=C=Nc1cccc(C2(N3CCCCC3)CCCCC2)c1	inconclusive: 5.01 µM [inhibitor, full curve, poor fit]	
O=C(N/N=C/c1c(O)n(CCc2ccc(F)cc2)c(=O)[nH]c1=O)c1ccncc1		inactive: 38.6%
C[C@H](CCC(=O)O)[C@H]1CC[C@H]2[C@@H]3C(=O)C[C@@H]4CC(=O)CC[C@]4(C)[C@H]3CC(=O)[C@]12C	inconclusive: 89.1 µM [inhibitor, partial curve, poor fit]	
Cc1cc(/C=C/c2cccc3sc(C)[n+](CCCCI)c23)ccc1N(CCCl)CCCl	active: 79.4 µM	
CCN(c1ccc(C(O)(C(=O)OC)C(F)(F)F)cc1)S(=O)(=O)c1ccccc1 (stereo not given)	inconclusive: 31.6 µM [inhibitor, single point]	
O=C1NC(=S)N(c2ccc(F)cc2)C(=O)/C1=C\c1ccoc1	inconclusive: 11.2 µM [inhibitor, partial curve, poor fit]	
O=c1cc(-c2ccc(O)c(O)c2)oc2c(C3O[C@H](CO)[C@@H](O)[C@H](O)[C@H]3O)c(O)cc(O)c12 (stereo not given in full)	active: 28.2 µM	
COc1ccc(CN2C(=O)NC(=O)/C(=C\c3cc(OC)c(OC)c(OC)c3)C2=O)cc1	inconclusive: 11.2 µM [inhibitor, full curve]	
COc1cccc(N2C(=O)NC(=O)/C(=C/c3ccc4c(c3)Cc3ccccc3-4)C2=O)c1	inconclusive: 31.6 µM [inhibitor, partial curve, poor fit]	
CCOc1ccccc1Oc1coc2cc(OC(=O)c3ccco3)ccc2c1=O	inconclusive: 35.5 µM [inhibitor, full curve]	
Cn1cccc1/C=C1\C(=O)NC(=O)N(Cc2ccccc2)C1=O	active: 22.4 µM	
Cc1nn(CCc2n[nH]c(=S)n2-c2cccc(Cl)c2)c(C)c1[N+](=O)[O-]	inconclusive: 100 µM [inhibitor, single point]	
Cc1cccc(N2C(=O)NC(=O)/C(=C\c3ccc(N4CCOCC4)cc3)C2=O)c1		inactive: 18.9%
